Data as given in patent US20100015126A1, “Methods of Binding of Cross-Beta Structures By Chaperones” (priority 2006, published 2010).

Experiment: Limulus Amebocyte Lysate (LAL) endotoxin assay
Details: for Endotoxin level (EU): stock solutions

| Substance | Estimated LPS content (estimated with LPS standard curve) | Endotoxin level (EU) |
| --- | --- | --- |
| HbAGE: human haemoglobin glycated with glucose-6-phosphate for 75 weeks | <0.25 ng/mL | 0.122 EU |
| tPA: tissue-type plasminogen activator (Actilyse, Boehringer-Ingelheim) | – | 2.7 EU |
